Results are given in words; binding and its absence hold for the method and conditions named. Binding seen in cells or lysates may run through a third protein. Some binding calls cover weakened binding; strength is not graded here.

Amino acid sequences for entries named in this document (tags omitted).
UniProt Q9H9Q4: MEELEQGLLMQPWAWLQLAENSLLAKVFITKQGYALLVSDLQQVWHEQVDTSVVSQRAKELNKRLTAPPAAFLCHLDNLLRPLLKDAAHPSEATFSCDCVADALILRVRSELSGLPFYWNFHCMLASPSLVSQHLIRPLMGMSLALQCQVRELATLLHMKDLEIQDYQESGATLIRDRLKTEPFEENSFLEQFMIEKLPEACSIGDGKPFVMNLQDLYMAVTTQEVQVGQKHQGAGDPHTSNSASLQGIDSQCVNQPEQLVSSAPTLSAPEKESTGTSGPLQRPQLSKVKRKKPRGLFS

This assay has as its target Flag-labeled XLF (UniProt Q9H9Q4). Nature of the assay: co-IP; Flag-XLF or Flag-UHRF1 overexpressed in HeLa cells for 48 h, after DNA damage; whole-cell lysate with BenzoNuclease; IP with anti-Flag antibody, Western blot of the endogenous partner; NP-40 lysis buffer (20 mM Tris-HCl pH 8.0, 137 mM NaCl, 10% glycerol, 1% NP-40), beads at 4 °C for 10 to 12 h. Background: A western blot detects proteins with antibodies after separation by electrophoresis.

B1: endogenous UHRF1 (Ubiquitin-like with PHD and Ring Finger domains 1) (protein, UniProt Q96T88 1-793)
chain: MWIQVRTMDGRQTHTVDSLSRLTKVEELRRKIQELFHVEPGLQRLFYRGKQMEDGHTLFDYEVRLNDTIQLLVRQSLVLPHSTKERDSELSDTDSGCCLGQSESDKSSTHGEAAAETDSRPADEDMWDETELGLYKVNEYVDARDTNMGAWFEAQVVRVTRKAPSRDEPCSSTSRPALEEDVIYHVKYDDYPENGVVQMNSRDVRARARTIIKWQDLEVGQVVMLNYNPDNPKERGFWYDAEISRKRETRTARELYANVVLGDDSLNDCRIIFVDEVFKIERPGEGSPMVDNPMRRKSGPSCKHCKDDVNRLCRVCACHLCGGRQDPDKQLMCDECDMAFHIYCLDPPLSSVPSEDEWYCPECRNDASEVVLAGERLRESKKKAKMASATSSSQRDWGKGMACVGRTKECTIVPSNHYGPIPGIPVGTMWRFRVQVSESGVHRPHVAGIHGRSNDGAYSLVLAGGYEDDVDHGNFFTYTGSGGRDLSGNKRTAEQSCDQKLTNTNRALALNCFAPINDQEGAEAKDWRSGKPVRVVRNVKGGKNSKYAPAEGNRYDGIYKVVKYWPEKGKSGFLVWRYLLRRDDDEPGPWTKEGKDRIKKLGLTMQYPEGYLEALANREREKENSKREEEEQQEGGFASPRTGKGKWKRKSAGGGPSRAGSPRRTSKKTKVEPYSLTAQQSSLIREDKSNAKLWNEVLASLKDRPASGSPFQLFLSKVEETFQCICCQELVFRPITTVCQHNVCKDCLDRSFRAQVFSCPACRYDLGRSYAMQVNQPLQTVLNQLFPGYGNGR
For the molecule B1, the binding entry is “binds”.
